This is an account of results in article PMC4750058.

Amino acid sequences for entries named in this document (tags omitted).
UniProt G0SFH5: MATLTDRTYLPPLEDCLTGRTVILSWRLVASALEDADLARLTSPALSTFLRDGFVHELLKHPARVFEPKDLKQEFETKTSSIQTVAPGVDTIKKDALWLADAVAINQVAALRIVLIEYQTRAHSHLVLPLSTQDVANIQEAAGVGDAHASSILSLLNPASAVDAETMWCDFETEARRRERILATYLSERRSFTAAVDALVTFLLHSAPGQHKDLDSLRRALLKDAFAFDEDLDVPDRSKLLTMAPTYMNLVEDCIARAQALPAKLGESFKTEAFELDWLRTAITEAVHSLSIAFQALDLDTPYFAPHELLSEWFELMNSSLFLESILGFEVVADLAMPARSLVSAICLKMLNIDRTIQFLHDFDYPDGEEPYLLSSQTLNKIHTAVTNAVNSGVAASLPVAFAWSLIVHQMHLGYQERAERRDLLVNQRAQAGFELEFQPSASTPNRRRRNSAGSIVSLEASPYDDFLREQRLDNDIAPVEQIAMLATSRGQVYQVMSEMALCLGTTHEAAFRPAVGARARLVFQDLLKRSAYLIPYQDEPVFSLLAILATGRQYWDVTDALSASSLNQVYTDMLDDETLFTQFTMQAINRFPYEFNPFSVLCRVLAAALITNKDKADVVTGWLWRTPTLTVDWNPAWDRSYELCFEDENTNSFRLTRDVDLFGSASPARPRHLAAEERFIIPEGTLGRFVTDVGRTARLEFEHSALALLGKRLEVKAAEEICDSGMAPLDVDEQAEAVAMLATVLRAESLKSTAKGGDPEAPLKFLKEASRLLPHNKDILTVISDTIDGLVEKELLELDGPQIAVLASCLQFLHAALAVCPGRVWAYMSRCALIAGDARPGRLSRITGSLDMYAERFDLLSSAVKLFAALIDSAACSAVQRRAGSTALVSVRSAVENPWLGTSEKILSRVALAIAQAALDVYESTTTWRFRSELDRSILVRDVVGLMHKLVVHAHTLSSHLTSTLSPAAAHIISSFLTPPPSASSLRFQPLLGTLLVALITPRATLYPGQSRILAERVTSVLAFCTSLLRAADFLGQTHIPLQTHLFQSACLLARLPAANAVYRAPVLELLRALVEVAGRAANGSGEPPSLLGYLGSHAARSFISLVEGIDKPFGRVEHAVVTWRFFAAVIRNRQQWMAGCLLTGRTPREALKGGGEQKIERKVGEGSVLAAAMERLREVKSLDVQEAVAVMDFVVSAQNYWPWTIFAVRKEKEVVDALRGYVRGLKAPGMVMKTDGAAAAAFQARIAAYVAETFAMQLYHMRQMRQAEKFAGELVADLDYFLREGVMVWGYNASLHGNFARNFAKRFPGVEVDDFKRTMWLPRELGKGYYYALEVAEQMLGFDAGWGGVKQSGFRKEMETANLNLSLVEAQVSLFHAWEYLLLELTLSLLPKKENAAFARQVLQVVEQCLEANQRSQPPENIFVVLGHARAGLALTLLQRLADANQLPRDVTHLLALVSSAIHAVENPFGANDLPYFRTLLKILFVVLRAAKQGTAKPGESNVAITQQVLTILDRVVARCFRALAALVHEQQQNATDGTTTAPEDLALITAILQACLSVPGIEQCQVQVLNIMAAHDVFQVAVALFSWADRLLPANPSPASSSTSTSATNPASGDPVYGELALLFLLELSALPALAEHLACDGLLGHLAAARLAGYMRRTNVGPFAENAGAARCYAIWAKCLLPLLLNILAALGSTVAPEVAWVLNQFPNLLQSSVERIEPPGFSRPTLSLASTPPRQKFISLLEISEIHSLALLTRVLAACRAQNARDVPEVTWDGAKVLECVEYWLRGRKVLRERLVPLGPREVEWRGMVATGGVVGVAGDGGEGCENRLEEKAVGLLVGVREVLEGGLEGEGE

Results are given in words; binding and its absence hold for the method and conditions named. In cells and extracts the contact can be indirect. These calls come from enrichment with a bait or labelling near it, and not all partners need be listed. Tags and fused reporters may be left off the sequences shown.

B1: ctNup82 (endogenous) (protein, UniProt G0S4F3 1-882)
chain: MPKIKSFAPAWLNEPAPGHKLFAPAADDGTATVPLAYGKKIKPGPRRTIARRGTEIFVACGKQIRWGDLAQLKESWESRPSRSSVGPTSTKKDSSDFDDGAATAGYRIIKTPVADDIRQLVMSPNQDFLAVLTSHTVHICILPDSSHLHIQDTTPFKPKFWTLGPTTHVTSRSAVVSAVWHPLGVNGHALVTVTEDAIVRVWELSTADRWTFDAPTLAIDLKKLADATYLDQDFGVSTSATNKGFSPDAFDMEVAAACFPTRDSGGWAPMTLWLAMTSGDVYALCPLLPQRWTPPPTLIPSLSASIVAKVAAAEDNPESTPEERLVAQQQLEWMSEIDNQEPKLVEEATGEATIEVYTRPSRPGLVPKLQGPFDFDLNPEDEQDDEVELKDIYVIGEKPRVADLMRGEEEELEMMKEDQHNGLSLNIICLLSTSGQVKICLDIDGVEAQWLPPRSKNKRLFAPPPEPPSLLTFQTFDTLKPAEVTPDGWPMFSEDATSPYSFYVTHPAGITYISLTPWVFRLESELQSDSEAGTEFRIDLLAKGQGSERDRIFTQTRTQSPLAAATSIDDPDLGYFILSATQTDPIALFFETPERPVVPKETSVVIPEHVEERPPSPYWEPRPLFHPAEALDKPSAVPAWIDNLRTGRRRPLLTQELRLSMATLEVFHDGHKVVSTEVSDINDAVAELFRKCEALQGELRDQIKKVNEVKNRIHTITGDDLSDDPPVSEDQLIKQRIRVARERQEELANRMERLRKKFGRTTTRELSDKEKAWIEEVQNMATSILGPEAGQGALATTPNLAKQPWKRLEEIKTLRNALMAEAEQLQKVGDDTEESTPASQMPSLKIPSEIRKAKMAQVMSLLERESALVDAVKARIERLSIG
B2: ctNsp1 (protein, UniProt G0SBQ3 1-678)
chain: MSFTFGQPSTSGASGQSNTSTAPASGGLFGSTTGSSTPAFSFGNTSGTQSGSLFGGATTGQKTSLFGNTSSTTPAGTPATSLFGQSTSSSSGPSLFGNASKPSGNLFGNTSTSAAGSSTPAGTPSLFGSKTATTSAGASSTTPAATAGSGSLFGSTTATTQGSSTPTSTGLFGGSSTASKSLFGSTTTPATGTSGSQTTPAKPLFGSFGSTTPAGAPPTDATKTAGLFGNLSKPATTGTSTPTLFGSTSATTQGQSSTPLFGAKPAETSTTTAASGAATPATSAPASTTPTLFGGATLTSSAPAASTSTSTATASTPAATKPLFGATATTSAPGSSTTTATPGLFSTTPATTAAAGSSTATSTLFGTKPATTTAAAASSTPAATSTPSLFGSKPASTTAPASGTPTTTTAPASTSAPATTTAAPTSGASATASTTTAGQDAKTTTAGLGASTVGPQSQLPRLKNKTMDEIITRWATDLAKYQKEFKEQAAKVMEWDRLLVENGEKIQKLYTSTYEAERASNEIERQLSNVESQQEELTAWLDRYERELDELYAKQMGSAAGEQAAGPDQERERTYKLAEKLTDQLDEMGKDLAKMIKEINDMSNTLSKGSKPDDPLTQIVRVLNGHLAQLQWIDTNAAALQAKVAAAQKAAGSMGANVPGTETDAAESFYRSYRGGLK
modifications: O-GlcNAc modification suggested by Western blot; sites not stated
B3: ctNup170 (protein, UniProt G0S7B6 1-1416)
chain: MEPMTPMRPIPGAYVNTPAPPTANPARRRLFTEASSSGAAATTQLGAAPAPLASTMAPGPEINSGLMTPQAREDLPPVAKAAQVVNQTLQLDDSYPDLDSYCRPGASSDYEMQSSDSSWAPFHVVRHHNIPDKVFEHLNAGEVFTKLGLFAEIGYAWASIDSSLFLWDYTHPNPELIGYEEATHTITAVALVPPKPGVFVKTITHVLVVATTSEIILLGVSATPTPSGSKSLTLYSTRMSVHRGGSDVSFIVGTKDGRIFLGGESDTDIHEIFYQQEERWFSSRCGKINHSHPGWSAVVPSLAGLPFGSRQQEWLRGLYVDDTRNLLYSLSNRSTIRTYHMEGPEKLTKVIEKDKTSCLRDFAHMADSSPLFTDKTNIVALSPIPATEASKLHLMALTDTGCRLFLSATSSASYTMGGATSLAPQSMQLQFVKFPPRESPTRIRTLNGQIIDSQLDKTSRALDPSALGFRFSPGYFFDVVRKHPNQDMLFVSAPDTGRIKVTQPASALKYFEQGTWIELENGNRTIEIGLTTAPFAAAKQPLGFGNELAVQFDQVPGEFAVLTNTGVHIVRRRRLVDIFAKALGNCVSASDDALEREVRKFINQYGRVETIAAALAVACGQGSDLRTGTGRGMDRNTENLARAAFIEYGGQPRLAESDGKQSVSESVRLSSRHDALALYLTRLVRTLWKAKVVQVGSGSDISSTIPTSKLVTIQENVERLRNFLEANKSTIQGLAPPSERLFGRQEDIANQKEHQALHALQKLMESISEGISFVLMLFDERVSDIYARLDAVSQQQLKDLTYEQLFSQTPGKELAKVLVKAIVNRNIASGANVETVADALRRRCGSFCSPDDVVTFKAQEQLQRASEQAHNSPVLRALLAESLRLFEQVAGSLTPANLTTAVEQYISLKYYAGAIQLCLTVAQQKDRGNTALSWVNDGKPANDSRKKAFDERKICYNLIHQVLDKLESDFAGEPELVDGRPTLAATKRMEAYNVVNDSSDEVFHFDLYEWYIEKGWTDRILSIDSPHVITYLQRLAETDFRHAELLCRFYTTRSRFFEAAQVQTNLAKSDLNISLKDRIILLSRAKGNASVNTIGISRQQQQQLNHEASELLEIAHIQDDLLERLVADPRIPEERKAEIEEFLDGPIRTLTDLFNDYADQANYYDLCLLIFHAADFHNPRTILDTWNNLINQSHFEAEQRREYWEIVQAGGDLPAGVIAPIAEPPLPYVYVSQQIQLIAHRTSLDSLIFPVNSLLPVVCAYAINNGQDASIGADPCWPIQLFLNLGVPHALVVQVLENVLDTQEAPFTGRRRKLVVQWIAMAVDMWVREVERRGAMAAAAASGASGSEAVMGSWVSELLGRADQVLTQIAGTGATLRGGAASDAEEIASLRRTVKGLKRSVDMLLGGEMARMSFFR
B4: ctNup57 (protein, UniProt G0S0R2 1-326)
chain: MFSSLNTRPAGQSLFGANTGGGLFGQSLANQPQQQQQPLQQQQQQAAPALGQSQINQNQQLGGSLWQPGSLTAYQKPIPEQIKLIVDKWNPNHPNCAFKTYLYNKVDEHTVPLYGPGPNEDPKEWEEALQRKPAPNFIPVLCSGFPSIVARLMLQRRVITEFNNKLHQINASLDAILSRHDLDHTVRAFNARRRHAELSRRCLHLAARVQVLRNRGYALSGDEDELKQKLQQIDKTLNDPAQGSRLEELWSRLIVLRGYAEDLKDQINQAGITESDGLGEEIEAKAKKILEDYDKQLQHLKKQVEEAKKDFEEWEKQHNPAPAPAR
B5: ctNup159 (protein, UniProt G0SBS8 1-1481)
chain: MAFSFGNAGGGGGGVTQGKDLEVIQTEGLGFLALAGDAKVQLTSKWSPPPAPTASLLSIASRKGLVAAAGPDAVHVATTESVRKAFLAEKNGDSEVRPFNPEAKLPLPLRISQLAFTADEQYLVLSAETGGGLRAYDVNSLTQGNTQSAFELATNGETLRQLAPNPMPESAAFCAIVTTNGNLYMANLAERTLVSGPNGPTLRSQVSCAAWSTKGKQLVAGMADGSIYQMTPDGTEKAHIPKPPNLGDYHVSSVVWLENNVFLTIHNPTNSTNPDDKTVYHVITRQQSSGSPPNFTFQKLNDPVEPFVADKTPHHTVLRLKDFPPNLQDLLLVSSTAVETIGLLTRSKTPLATDKPADAITNVFTTTELADDSRRAQLPMSEDMMETYPIGVALDLSSKEKVYKPIPTDEEIEYSPGPLPGLWVLNNEGVLASWWVVYNESIRAGTTYSGIGGSSEVIPASPAPALASSTAPVPAFASPVSKPTFGSPSPATPAFGGPSALGTKASPWATAGGAASSTPTFGQPSFGKPAAPAFGQASFPGLGQKVSPWATGSTTSAAPAFGQSGFASAGTAPGKVFGSSFTAPSSGGFASFATKSGFASLSAPSGGSSIFSSKPGAPLTSAAPEVSMDTDTAFPPPSTKTDKPAFGSSPFVLGSTFKADPTAAHDIEKPKEGESKSLFDTGFGLSLEDAAKQPASAAESKDEEMRSTTPPLPPPTETKPKSIFESTTPTTTPAPQKFEFKTTTPSGFSTLLGSTKPVASSMPNIFATPKPTSAEKPKSIFDTLKPKEESKENLLKASEPPLPPDTTSKAVFQPGSSSSESAESSPGAAAKAAFKVGNDETPKPQKELAPKPEAVPLPPDFVKAKPKTEAKETKAEEPAVSPNLPVKPLAKKAEPIPAVPESASEEEQGQAEEEEAESGEEEEEEEEEGEGEEEEEEEEEEEEEEEEGEEGEEQSEAGSEGSGVDVAKDLSPTAKFGSMTPGYTPHTSLGGMAESTFSTISRSEVAEQSRPLFGEITKNAPPLFPAAGPLPVSPRSPSPVRGVVRSSILRPTETPRPVDTTPVPSRKGLLQKTASFGMSTGQKPAVDPNVKAQRKLAEKLKAEEQVLVDPEDEGIQQILQSKVEPTLRMNEFLAVDTKLAPMKPGRDDVPNACETLWRDINRMIDRLGLNSRSLQSFILGHTSHGKPGGRQKDDLEKPDDWVLIEAYDLGDMIDNKLARELEAGRIKDVEGTMAAIHNLGRDLAKLRAKEEDLRKLFNAQVDPDQIALTKALPLSAEQLAQQNELRRSYASFSKLLTEAEEALTVLKAKLASANAARGRRGAGAAQVPTVDAIIRTINKMTSMAEKRSGDIDVLESQMRKLRIGSLGPAGTPNGNGVGAGTVVPATPGGGGRSRESSPFVTPQSSRRAMFMSPGSVGTATPRGLLAATGTPSPTKKKLSMYTAEEKRELRAREAKRKATLRMLRESLARVGPNVVRLRDDD
B6: ctGle2 (protein, UniProt G0SEA3 1-357)
chain: MAGLFGTTTSTTTSTLGDLKNDVELGSPPEDSITDLSFNPNPNDPKDFLAVSSWDKKVRVYEIAANGQNQGKVQMEHEGPVFAVDFFKDGTKVISAGADKQAKVLDLASGQAMQVAAHDAPIRCVKYFEAGGTPMAVTGSWDKTIKYWDFRSATPAGTVQCQERVYTMDVKENLLVIGTADRYIDVINLKEPVKFYKTLQSPLKWQTRVVSCFTDSQGFAIGSIEGRCAIQYVEDKDQSMNFSFKCHRDTPQNNVTNVHAVNAISFHPQHGTFSTAGSDGTFHFWDKDAKHRLKGYPNVGGSITATKFNRNGTIFAYAISYDWSKGYQGNTANYPTKVMLHPVLGDECKPRPSVKKR

The experiment has as its target T1, FpA-tagged ctNup53 (construct P_ACTIN-FpA-NUP53-TGPD) (Chaetomium thermophilum) (UniProt G0S156).
T1 sequence: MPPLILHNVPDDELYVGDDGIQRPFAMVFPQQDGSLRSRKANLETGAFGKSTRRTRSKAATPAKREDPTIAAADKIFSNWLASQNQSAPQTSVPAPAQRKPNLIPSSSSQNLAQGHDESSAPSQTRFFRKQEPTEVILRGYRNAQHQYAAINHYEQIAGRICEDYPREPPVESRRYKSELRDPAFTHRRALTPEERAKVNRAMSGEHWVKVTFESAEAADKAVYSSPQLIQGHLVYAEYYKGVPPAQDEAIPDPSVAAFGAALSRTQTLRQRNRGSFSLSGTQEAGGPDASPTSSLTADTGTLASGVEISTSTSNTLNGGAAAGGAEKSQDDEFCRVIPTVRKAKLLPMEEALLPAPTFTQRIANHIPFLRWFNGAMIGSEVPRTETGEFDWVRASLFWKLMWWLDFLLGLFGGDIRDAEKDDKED
As to the kind of experiment: affinity purification with mass spectrometry; magnetic-bead affinity capture of FpA-tagged bait from cryo-milled C. thermophilum mycelium in 24-well format under various extraction conditions (Supplementary Table 1); for ctNup53 proteins identified from condition #9; SDS-PAGE, Coomassie.
For ctNup145N, the binding result is listed as “binds”. The result for ctNup188 (from UniProt G0SFH5 1-1858) reads “binds”; that for B1, “binds”; that for B2, “binds”. As for B3, the binding entry is “binds”. With B4, the binding entry is listed as “binds”.

For B5, the binding entry is recorded as “binds”. Consider B6, for which the binding entry is listed as “binds”.
